No constants are given. Whether binding was seen depends on the method and setting. Binding seen in cells or lysates may run through a third protein. Some binding calls cover weakened binding; strength is not graded here. For some of these results: Sequences can lack the tags named with a protein. Values belong to the molecule of their own block, whether it stands above or below them.
Tests used:
[1] = molecular target: T1, voltage-dependent anion channel 2 (human (endogenous in GBM1-NSTCs)) (UniProt P45880); assay: co-IP; lysate of GBM1-NSTCs, endogenous proteins; anti-VDAC2, anti-PFKP or control IgG immobilised on AminoLink Plus coupling resin (Pierce Co-IP Kit), incubated with cell lysate overnight, eluates analysed by western blot; reciprocal precipitations for VDAC2 and PFKP
T1 sequence: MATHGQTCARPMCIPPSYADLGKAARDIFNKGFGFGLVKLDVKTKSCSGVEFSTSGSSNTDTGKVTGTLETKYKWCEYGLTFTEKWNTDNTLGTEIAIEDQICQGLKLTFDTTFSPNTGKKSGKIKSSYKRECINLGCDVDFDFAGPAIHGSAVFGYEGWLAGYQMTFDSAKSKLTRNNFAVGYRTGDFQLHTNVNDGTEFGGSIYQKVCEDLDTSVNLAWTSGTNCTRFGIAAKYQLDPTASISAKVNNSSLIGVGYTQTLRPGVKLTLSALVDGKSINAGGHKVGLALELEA

Protein sequences, listed by entry. Tags and fused reporters are not part of them.
UniProt P04406: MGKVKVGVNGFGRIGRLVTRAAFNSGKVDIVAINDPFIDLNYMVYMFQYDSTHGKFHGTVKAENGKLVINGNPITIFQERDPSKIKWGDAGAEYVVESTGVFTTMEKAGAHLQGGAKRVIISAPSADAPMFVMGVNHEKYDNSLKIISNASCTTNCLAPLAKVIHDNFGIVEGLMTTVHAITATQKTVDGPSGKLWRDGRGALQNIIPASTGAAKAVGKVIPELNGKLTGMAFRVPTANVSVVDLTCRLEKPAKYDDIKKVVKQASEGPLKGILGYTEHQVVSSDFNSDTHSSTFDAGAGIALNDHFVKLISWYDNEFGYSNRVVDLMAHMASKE
UniProt P14618: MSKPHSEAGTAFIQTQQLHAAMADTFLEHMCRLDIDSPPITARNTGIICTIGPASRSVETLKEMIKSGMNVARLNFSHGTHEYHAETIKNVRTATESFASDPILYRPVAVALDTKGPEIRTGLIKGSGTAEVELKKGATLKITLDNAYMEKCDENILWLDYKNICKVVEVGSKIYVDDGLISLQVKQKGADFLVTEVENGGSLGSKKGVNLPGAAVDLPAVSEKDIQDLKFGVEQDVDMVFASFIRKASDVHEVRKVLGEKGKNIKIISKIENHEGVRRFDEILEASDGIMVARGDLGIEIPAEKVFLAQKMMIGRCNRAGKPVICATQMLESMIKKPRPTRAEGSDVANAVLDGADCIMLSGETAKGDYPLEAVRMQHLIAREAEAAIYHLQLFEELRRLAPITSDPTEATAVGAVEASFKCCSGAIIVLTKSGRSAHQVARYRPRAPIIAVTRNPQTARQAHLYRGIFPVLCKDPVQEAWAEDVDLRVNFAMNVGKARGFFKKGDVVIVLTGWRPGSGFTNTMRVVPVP

[2] = molecular target: T2, overexpressed VDAC2 (UniProt P45880); assay: co-IP; lysate of GBM2-GSCs overexpressing VDAC2; anti-VDAC2 or anti-PFKP immobilised on AminoLink Plus coupling resin (Pierce Co-IP Kit), incubated with cell lysate overnight, eluates analysed by western blot; reciprocal precipitations
T2 sequence: T1 sequence

- binding [1]: no binding
Molecule: GAPDH (from UniProt P04406 1-335) (enzyme)

- binding [1]: no binding
Molecule: PKM2 (from UniProt P14618 1-531) (enzyme)

- binding [1]: binds
- binding [2]: binds
B1: platelet-type of phosphofructokinase (enzyme, UniProt Q01813 1-784)
chain: MDADDSRAPKGSLRKFLEHLSGAGKAIGVLTSGGDAQGMNAAVRAVVRMGIYVGAKVYFIYEGYQGMVDGGSNIAEADWESVSSILQVGGTIIGSARCQAFRTREGRLKAACNLLQRGITNLCVIGGDGSLTGANLFRKEWSGLLEELARNGQIDKEAVQKYAYLNVVGMVGSIDNDFCGTDMTIGTDSALHRIIEVVDAIMTTAQSHQRTFVLEVMGRHCGYLALVSALACGADWVFLPESPPEEGWEEQMCVKLSENRARKKRLNIIIVAEGAIDTQNKPITSEKIKELVVTQLGYDTRVTILGHVQRGGTPSAFDRILASRMGVEAVIALLEATPDTPACVVSLNGNHAVRLPLMECVQMTQDVQKAMDERRFQDAVRLRGRSFAGNLNTYKRLAIKLPDDQIPKTNCNVAVINVGAPAAGMNAAVRSAVRVGIADGHRMLAIYDGFDGFAKGQIKEIGWTDVGGWTGQGGSILGTKRVLPGKYLEEIATQMRTHSINALLIIGGFEAYLGLLELSAAREKHEEFCVPMVMVPATVSNNVPGSDFSIGADTALNTITDTCDRIKQSASGTKRRVFIIETMGGYCGYLANMGGLAAGADAAYIFEEPFDIRDLQSNVEHLTEKMKTTIQRGLVLRNESCSENYTTDFIYQLYSEEGKGVFDCRKNVLGHMQQGGAPSPFDRNFGTKISARAMEWITAKLKEARGRGKKFTTDDSICVLGISKRNVIFQPVAELKKQTDFEHRIPKEQWWLKLRPLMKILAKYKASYDVSDSGQLEHVQPWSV
